From paper doi:10.1101/2022.03.21.485087
Results are given in words; binding and its absence hold for the method and conditions named. Binding seen in cells or lysates may run through a third protein. Some results given as binding are weak or reduced against the parent protein; the word gives no strength.

Sequences of proteins named here, by UniProt entry; tags and fusion partners are left off. A change or cut given only in a name is not applied to a line headed by its entry.
UniProt Q14203: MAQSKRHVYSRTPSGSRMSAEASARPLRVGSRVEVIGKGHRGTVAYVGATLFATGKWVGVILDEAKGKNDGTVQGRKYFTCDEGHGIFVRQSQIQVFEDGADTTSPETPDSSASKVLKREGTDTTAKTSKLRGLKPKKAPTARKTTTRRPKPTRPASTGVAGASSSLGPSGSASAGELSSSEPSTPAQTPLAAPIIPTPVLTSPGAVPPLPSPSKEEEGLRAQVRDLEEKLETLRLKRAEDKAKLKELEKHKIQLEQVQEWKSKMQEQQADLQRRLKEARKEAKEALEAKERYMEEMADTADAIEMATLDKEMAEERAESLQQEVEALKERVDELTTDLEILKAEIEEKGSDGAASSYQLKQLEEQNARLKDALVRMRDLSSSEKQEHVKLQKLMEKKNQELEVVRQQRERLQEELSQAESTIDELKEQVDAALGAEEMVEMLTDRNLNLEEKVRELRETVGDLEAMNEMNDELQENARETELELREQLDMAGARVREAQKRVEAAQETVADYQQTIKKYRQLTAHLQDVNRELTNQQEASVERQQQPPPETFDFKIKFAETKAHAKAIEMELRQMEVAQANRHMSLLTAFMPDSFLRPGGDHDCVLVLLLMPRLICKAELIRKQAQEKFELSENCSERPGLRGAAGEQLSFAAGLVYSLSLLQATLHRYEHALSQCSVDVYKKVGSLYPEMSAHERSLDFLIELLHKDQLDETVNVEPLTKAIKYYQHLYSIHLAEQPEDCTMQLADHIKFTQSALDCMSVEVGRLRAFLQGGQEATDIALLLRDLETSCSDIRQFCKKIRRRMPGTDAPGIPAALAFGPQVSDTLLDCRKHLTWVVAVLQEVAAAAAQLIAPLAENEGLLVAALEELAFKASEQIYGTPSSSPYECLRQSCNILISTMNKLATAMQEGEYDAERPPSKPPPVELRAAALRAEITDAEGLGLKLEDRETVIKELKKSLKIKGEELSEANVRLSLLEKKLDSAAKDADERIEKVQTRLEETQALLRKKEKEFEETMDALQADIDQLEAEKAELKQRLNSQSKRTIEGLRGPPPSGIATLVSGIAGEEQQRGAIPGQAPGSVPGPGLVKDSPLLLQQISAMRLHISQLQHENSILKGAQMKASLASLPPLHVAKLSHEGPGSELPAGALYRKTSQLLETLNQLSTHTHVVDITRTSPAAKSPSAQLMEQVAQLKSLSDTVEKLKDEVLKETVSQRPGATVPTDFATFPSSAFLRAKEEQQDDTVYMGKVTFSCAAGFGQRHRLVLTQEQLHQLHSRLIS
UniProt P10235: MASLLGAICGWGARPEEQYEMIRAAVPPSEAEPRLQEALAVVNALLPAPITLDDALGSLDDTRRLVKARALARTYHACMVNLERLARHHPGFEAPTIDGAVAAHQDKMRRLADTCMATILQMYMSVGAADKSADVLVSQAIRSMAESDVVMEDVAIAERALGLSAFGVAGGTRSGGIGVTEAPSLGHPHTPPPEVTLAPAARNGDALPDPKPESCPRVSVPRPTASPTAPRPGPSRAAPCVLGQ

Molecular target: FLAG-EGFP-p150Glued (UniProt Q14203)
Assay: co-IP

Row | Substance | binding
1 | pUL51-HA (wild-type HSV-1 tegument protein pUL51, HA-tagged) (from UniProt P10235 1-244) | binds
2 | pUL51^90-125-mCherry (from UniProt P10235 90-125) (domain or fragment) | binds
